{"source": "PubChem BioAssay AID1745850", "about": "(National Center for Advancing Translational Sciences (NCATS), 2022)", "note": "In all, about 2,100 compounds went through this assay and about 260 (12%) were called active. Inconclusive means that the source gave no clear call. Such entries were picked first, then a sample of the others. The call rests on the fitted dose curve; in most records, active means well fitted cell-killing curve with a large enough effect; inconclusive means small, poorly fitted or top-dose-only effect, or effect the other way; inactive means flat fitted curve, though single readings scatter. A potency beside an inconclusive call is a rough fit, not a confirmed value. Potency means the concentration at half of the fitted maximal effect.", "data": [{"experiment": "Viability Counterscreen for Confirmatory qHTS for Inhibitors of ATXN expression; further: nearly all actives have a fitted effect of over 50% in size", "conditions": "HEK-293 ATXN2-luc cells viability, CellTiter-Fluor, 24 h", "summary_of_the_method": "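Cells with an ATXN2-luciferase reporter were dosed in a dilution series for 24 h at 37 degrees C. Viability was read first with Gly-Phe-AFC at 25 uM final (fluorescence, ex 405/em 540), then SteadyGlo luminescence. Medium-only wells defined 100% inhibition.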", "values": [{"smiles": "Cc1nn(-c2ccccc2)c2nc(-c3cccs3)cc(C(=O)NN)c12", "Potency": "inactive"}, {"smiles": "CCN(CC)c1ccc(C(=O)N/N=C/c2ccccc2OC(F)F)cc1", "Potency": "inactive"}, {"smiles": "O=[N+]([O-])c1ccccc1S(=O)c1ccccc1[N+](=O)[O-]", "Potency": "inconclusive: 14.1 µM [cytotoxic, partial curve, poor fit]"}, {"smiles": "O=c1c2ccc(Cl)cc2nc(-c2cccc(C(F)(F)F)c2)n1O", "Potency": "inconclusive: 11.2 µM [cytotoxic, partial curve]"}, {"smiles": "CCOc1ccc(S(=O)(=O)NCCC(=O)N2CC=C(c3ccccc3)CC2)cc1", "Potency": "inactive"}, {"smiles": "Cc1ccc(NC(=O)CN2C(=O)c3ccccc3S2(=O)=O)cc1C", "Potency": "inconclusive: 39.8 µM [cytotoxic, single point]"}, {"smiles": "COCCNC(=O)c1cccc(Nc2nc(-c3ccccc3)c3cc(Cl)ccc3n2)c1", "Potency": "inconclusive: 22.4 µM [cytotoxic, single point]"}, {"smiles": "Cc1cc(C)n(-c2ccc(C(=O)N3CCN(S(=O)(=O)c4cccc(Br)c4)CC3)cc2)n1", "Potency": "inactive"}, {"smiles": "COc1ccc(CC(=O)Nc2nc(-c3ccc(OC)c(OC)c3)cs2)cc1OC", "Potency": "inconclusive: 3.16 µM [cytotoxic, partial curve]"}, {"smiles": "O=C1Nc2c(Br)cc(Br)c3cccc1c23", "Potency": "inactive"}, {"smiles": "COc1cc(-c2nnc(SCC(=O)N(Cc3ccccc3)C(C)(C)C)o2)cc(OC)c1OC", "Potency": "inactive"}, {"smiles": "O=c1[nH]c(CN2CCN(c3ncccn3)CC2)nc2c(Br)cc(Br)cc12", "Potency": "inactive"}, {"smiles": "O=C(c1ccc(-c2nnc(Nc3cccc(Cl)c3)c3ccccc23)cc1)N1C[C@H]2C[C@H](C1)c1cccc(=O)n1C2", "Potency": "inconclusive: 3.55 µM [cytotoxic, single point]"}, {"smiles": "O=C(N/N=C/c1ccc(O)cc1O)c1ccncc1", "Potency": "inactive"}, {"smiles": "NS(=O)(=O)c1ccc(CCNc2ncnc3c2c(-c2ccccc2)cn3-c2ccc(F)cc2)cc1", "Potency": "inconclusive: 39.8 µM [cytotoxic, single point]"}, {"smiles": "COc1ccc2c(-c3ccc(S(N)(=O)=O)cc3)c(-c3ccc(S(C)(=O)=O)cc3)sc2c1", "Potency": "inconclusive: 25.1 µM [cytotoxic, single point]"}, {"smiles": "COC(=O)N/N=C/c1cn(CC(C)COc2ccccc2)c2ccccc12", "note": "(centres undefined)", "Potency": "inactive"}, {"smiles": "COC(=O)C1=C(C)N(Cc2ccccc2)C(=NCCc2cccnc2)N[C@H]1c1ccc(Br)cc1", "Potency": "active: 22.4 µM"}, {"smiles": "COc1ccccc1CNc1nc(NC(C)C)nc2cc(-c3ccccc3)sc12", "Potency": "active: 28.2 µM"}, {"smiles": "CCC1=C(OC(=O)N(CC)CC)N2C(=O)OC(=NCCc3c[nH]c4ccccc34)[C@]2(Cc2ccccc2)[C@H]2C1=CC[C@H]1C(=O)N(c3ccccc3)C(=O)[C@H]12", "Potency": "inactive"}, {"smiles": "COc1cccc(C(=O)Oc2c(CN3CCOCC3)cc(Cl)c3cccnc23)c1", "Potency": "inconclusive: 31.6 µM [cytotoxic, single point]"}, {"smiles": "Cc1cc(C(=O)CN2C(=O)c3ccccc3S2(=O)=O)c(C)n1CC1CCCO1", "note": "(centres undefined)", "Potency": "inactive"}, {"smiles": "N#Cc1c(N)n(C2OC(CO)C(O)C2O)c2ncnc(N)c12", "note": "(centres undefined)", "Potency": "inconclusive: 1.26 µM [cytotoxic, full curve]"}, {"smiles": "O=C(Nc1ccc2oc(=O)ccc2c1)c1ccc(-c2cccc(Cl)c2)o1", "Potency": "inconclusive: 28.2 µM [cytotoxic, single point]"}, {"smiles": "Cc1cc(SCC(=O)N/N=C/c2ccc(O)cc2O)c(C)cc1Br", "Potency": "inconclusive: 14.1 µM [cytotoxic, partial curve]"}, {"smiles": "Cc1ccc(/C=C2\\SC(=S)N(CCCC(=O)Nc3cccnc3)C2=O)cc1", "Potency": "active: 31.6 µM"}, {"smiles": "CCn1nc(C(=O)Nc2ccccc2N2CCCC2)c2ccccc2c1=O", "Potency": "inconclusive: 22.4 µM [cytotoxic, single point]"}, {"smiles": "O=C(N/N=C/c1cc([N+](=O)[O-])ccc1O)c1ccc(COc2ccc3c(c2)CCC3)o1", "Potency": "active: 11.2 µM"}, {"smiles": "COc1ccc(C(=O)NC(=S)NNC(=O)c2c(-c3ccccc3)noc2C)cc1OC", "Potency": "inconclusive: 31.6 µM [cytotoxic, single point]"}, {"smiles": "N=c1c2c(n(Cc3ccc(Cl)cc3)c3c1CCC3)CCC2", "Potency": "inconclusive: 3.16 µM [cytotoxic, partial curve, poor fit]"}, {"smiles": "Cc1cc(Cl)c(C(=O)Nc2cccc(C(F)(F)F)c2)c(C)n1", "Potency": "inactive"}, {"smiles": "CCN(CC)c1ccc(/C=N/NC(=O)Cc2cccs2)c(O)c1", "Potency": "inconclusive: 10 µM [cytotoxic, partial curve]"}, {"smiles": "Oc1c(CN2CCN(c3ccccc3)CC2)cc(Br)c2cccnc12", "Potency": "inconclusive: 4.47 µM [cytotoxic, full curve]"}, {"smiles": "Cc1ccc2c(c1)-c1c(cnn1CC(=O)N1CCCN(Cc3ccccc3F)C1)CO2", "Potency": "inactive"}, {"smiles": "COc1ccc(/C=C/C(=O)c2ccc([N+](=O)[O-])o2)cc1OC", "Potency": "active: 8.91 µM"}, {"smiles": "NC(=O)c1cccc(Nc2nc(C(N)Cc3ccc(C(F)(F)F)cc3)cs2)n1", "note": "(centres undefined)", "Potency": "inactive"}, {"smiles": "COC(=O)c1cc(=O)n(CCc2ccc(OC)c(OC)c2)c(=Nc2ccc(F)c(Cl)c2)s1", "Potency": "inconclusive: 4.47 µM [cytotoxic, single point]"}, {"smiles": "Cc1ccccc1N=Nc1ccc(O)c2ncccc12", "Potency": "inconclusive: 3.55 µM [cytotoxic, full curve, poor fit]"}, {"smiles": "CC(=NNc1nc2ccccc2o1)c1ncccn1", "Potency": "inconclusive: 0.355 µM [cytotoxic, full curve]"}, {"smiles": "CN(C)C(=O)c1cccc(-c2cnc3c(NC=O)cc(-c4ccccc4N(C)C)cn23)c1", "Potency": "inconclusive: 4.47 µM [rising, partial curve]"}, {"smiles": "O=c1c2c(nc3c(-c4cccc(Br)c4)c[nH]n13)CCCC2", "Potency": "active: 12.6 µM"}, {"smiles": "Clc1c(Cl)c(Cl)c2n[nH]nc2c1Cl", "Potency": "inactive"}, {"smiles": "COc1cc(/C=N\\NC(=O)CC#N)ccc1OC/C=C/c1ccccc1", "Potency": "inconclusive: 39.8 µM [cytotoxic, single point]"}, {"smiles": "CCc1cc[n+](C2=C([O-])c3ccccc3C(=O)/C2=N\\S(=O)(=O)c2cccs2)cc1", "Potency": "active: 17.8 µM"}, {"smiles": "CC(C)n1c(NCc2cc(Cl)ccc2O)nc2ccccc21", "Potency": "inactive"}, {"smiles": "CN1CCN(CCNC(=O)c2ccc3nc(-c4ccc(F)cc4)c(-c4ccc(F)cc4)nc3c2)CC1", "Potency": "inconclusive: 39.8 µM [cytotoxic, single point]"}, {"smiles": "CN(CCc1ccccc1)c1cc2c(c3c1ccn3C)C1CCC2O1", "note": "(centres undefined)", "Potency": "inactive"}, {"smiles": "O=c1ccc2ccccc2c2ccccc12", "Potency": "active: 17.8 µM"}, {"smiles": "CCc1ccc(-c2cc(C(F)(F)F)n3nc(C(=O)Nc4cnn(Cc5ccc(C)cc5)c4)cc3n2)s1", "Potency": "inconclusive: 39.8 µM [cytotoxic, single point]"}, {"smiles": "CC(CCc1ccccc1)NC(=O)c1ccc(C(=O)NC(C)CCc2ccccc2)cc1", "note": "(centres undefined)", "Potency": "inconclusive: 20 µM [cytotoxic, partial curve, poor fit]"}, {"smiles": "Oc1c(Cl)cc(Cl)cc1/C=N/Nc1ncc(Br)cn1", "Potency": "inconclusive: 7.94 µM [cytotoxic, partial curve, poor fit]"}, {"smiles": "Cc1ccc(NC(=O)CNc2cccc(Br)c2)cc1S(=O)(=O)N1CCOCC1", "Potency": "inactive"}, {"smiles": "Cc1cccc(Nc2nc(N)nc(CCl)n2)c1C", "Potency": "inconclusive: 3.16 µM [cytotoxic, single point]"}, {"smiles": "CCn1c2ccccc2c2cc(/C=N/NC(=O)c3ccc(O)cc3)ccc21", "Potency": "inconclusive: 11.2 µM [cytotoxic, partial curve]"}, {"smiles": "NC(Cc1ccc(Cl)cc1)c1csc(NC(=O)Nc2ccccc2-c2ccccc2)n1", "note": "(centres undefined)", "Potency": "inconclusive: 7.08 µM [cytotoxic, single point]"}, {"smiles": "CCCCC(=O)NC(c1ccccc1Cl)c1ccc2cccnc2c1O", "note": "(centres undefined)", "Potency": "inconclusive: 8.91 µM [cytotoxic, full curve]"}, {"smiles": "Cc1ccc(-c2cn(-c3ccc(OC(F)F)cc3)c3[n+]2CCCCC3)cc1", "Potency": "inconclusive: 28.2 µM [cytotoxic, partial curve, poor fit]"}, {"smiles": "Cc1cc(OCC(=O)NC(C)c2ccccc2)ccc1[N+](=O)[O-]", "note": "(centres undefined)", "Potency": "inactive"}, {"smiles": "O=C(NNC(=O)c1cccc2ccccc12)c1ccccc1O", "Potency": "inconclusive: 35.5 µM [cytotoxic, partial curve, poor fit]"}, {"smiles": "O=C(COc1ccc(Cl)cc1)N/N=C/c1cccc2cccnc12", "Potency": "inconclusive: 39.8 µM [cytotoxic, single point]"}, {"smiles": "Cn1c2ccccc2c(=O)c2c(=O)n(C3CCCCC3)c(-c3cccs3)nc21", "Potency": "inconclusive: 28.2 µM [cytotoxic, single point]"}, {"smiles": "c1ccc(-c2nnc(-c3ccccn3)nc2NC2CCCCC2)cc1", "Potency": "inconclusive: 5.01 µM [cytotoxic, partial curve]"}, {"smiles": "O=C1C=C(NCCc2cc(Br)c(O)c(Br)c2)C(=O)c2ncccc21", "Potency": "active: 10 µM"}, {"smiles": "Cc1ccc(C(=O)N/C(=C/c2ccc(-c3ccc([N+](=O)[O-])cc3)o2)C(=O)NCCCN(C)C)cc1", "Potency": "inconclusive: 39.8 µM [cytotoxic, single point]"}, {"smiles": "Cc1ccc(C(=O)N(CCCN(C)C)c2nc3ccc(Cl)cc3s2)cc1C", "Potency": "inconclusive: 39.8 µM [cytotoxic, single point]"}, {"smiles": "CCOC(=O)c1c(CSc2nc(C)cc(C)c2C#N)n(C)c2cc(Br)c(OC(C)=O)cc12", "Potency": "inconclusive: 12.6 µM [cytotoxic, partial curve]"}, {"smiles": "COc1cc2c3nnc(-c4ccc(F)cc4)c-3cn(Cc3ccc(C)cc3)c2cc1OC", "Potency": "inconclusive: 39.8 µM [cytotoxic, single point]"}, {"smiles": "O=C1c2cc(Cl)ccc2-c2c(O)cc(Cl)cc21", "Potency": "inconclusive: 25.1 µM [cytotoxic, partial curve]"}, {"smiles": "CCN(CC)S(=O)(=O)c1cc(NC(=O)C2CCN(c3ncnc4sc(C)c(C)c34)CC2)ccc1Cl", "Potency": "inconclusive: 17.8 µM [cytotoxic, partial curve]"}]}]}
